{
  "source": "patent US20160369115A1",
  "about": "“POLARIZING PLATE COMPOSITION, POLARIZING PLATE PROTECTIVE FILM, POLARIZER, POLARIZING PLATE, LIQUID CRYSTAL DISPLAY DEVICE, AND COMPOUND USED IN THE LIQUID CRYSTAL DISPLAY DEVICE” (FUJIFILM Corporation, priority 2014, published 2016)",
  "key": {"[1]": {"assay": "Durability evaluation of polarizing plate, additive in polarizing plate protective film (Example 1)", "conditions": "additive in protective film: Cellulose acylate, 25 μm, added amount 4.0 per 100 parts by mass of film resin; 410 nm"}, "[2]": {"assay": "Evaluation of light-fast adhesiveness of polarizing plate protective film with hardcoat layer", "conditions": "additive in protective film: Cellulose acylate, 25 μm, added amount 4.0 per 100 parts by mass of film resin; light 96 hours, 60° C., 50% RH"}},
  "note": "Some compounds share one wording; it may come from a single statement.",
  "data": [
    {"smiles": "COC(=O)Oc1c(Cc2ccc(C=O)cc2)c(=O)n(-c2ccccc2)c(=O)n1Cc1ccccc1", "note": "[Example compound AAA]", "values": [
      {"measurement": "Durability of polarizer: amount of change of orthogonal transmittance (%) 60° C., 95%, 500 hours", "setting": "[1]", "value": "A+ (The amount of change of the orthogonal transmittance before and after the elapse of time was less than 0.4%.)"},
      {"measurement": "Durability of polarizer: amount of change of orthogonal transmittance (%) 60° C., 95%, 1,000 hours", "setting": "[1]", "value": "A+ (The amount of change of the orthogonal transmittance before and after the elapse of time was less than 1.0%.)"},
      {"measurement": "Durability of polarizer: amount of change of orthogonal transmittance (%) 80° C., Dry 500 hours", "setting": "[1]", "value": "A+ (The amount of change of the orthogonal transmittance before and after the elapse of time was less than 0.1%.)"},
      {"measurement": "Durability of polarizer: amount of change of orthogonal transmittance (%) 80° C., Dry, 1,000 hours", "setting": "[1]", "value": "A+ (The amount of change of the orthogonal transmittance before and after the elapse of time was less than 0.5%.)"},
      {"measurement": "Light-fast adhesiveness", "setting": "[2]", "value": "A (The number of cells peeled off among 100 cells was equal to or less than 10.)"}
    ]},
    {"smiles": "COC(=O)Oc1[nH]c(=O)n(Cc2ccc(C=O)cc2)c(=O)c1Cc1ccccc1", "note": "[Example compound AAD]", "values": [
      {"measurement": "Durability of polarizer: amount of change of orthogonal transmittance (%) 60° C., 95%, 500 hours", "setting": "[1]", "value": "A+ (The amount of change of the orthogonal transmittance before and after the elapse of time was less than 0.4%.)"},
      {"measurement": "Durability of polarizer: amount of change of orthogonal transmittance (%) 60° C., 95%, 1,000 hours", "setting": "[1]", "value": "A+ (The amount of change of the orthogonal transmittance before and after the elapse of time was less than 1.0%.)"},
      {"measurement": "Durability of polarizer: amount of change of orthogonal transmittance (%) 80° C., Dry 500 hours", "setting": "[1]", "value": "A+ (The amount of change of the orthogonal transmittance before and after the elapse of time was less than 0.1%.)"},
      {"measurement": "Durability of polarizer: amount of change of orthogonal transmittance (%) 80° C., Dry, 1,000 hours", "setting": "[1]", "value": "A+ (The amount of change of the orthogonal transmittance before and after the elapse of time was less than 0.5%.)"},
      {"measurement": "Light-fast adhesiveness", "setting": "[2]", "value": "A (The number of cells peeled off among 100 cells was equal to or less than 10.)"}
    ]},
    {"smiles": "COC(=O)Oc1c(Cc2ccc(B(O)O)cc2)c(=O)n(-c2ccccc2)c(=O)n1Cc1ccccc1", "note": "[Example compound AAJ]", "values": [
      {"measurement": "Durability of polarizer: amount of change of orthogonal transmittance (%) 60° C., 95%, 500 hours", "setting": "[1]", "value": "A+ (The amount of change of the orthogonal transmittance before and after the elapse of time was less than 0.4%.)"},
      {"measurement": "Durability of polarizer: amount of change of orthogonal transmittance (%) 60° C., 95%, 1,000 hours", "setting": "[1]", "value": "A+ (The amount of change of the orthogonal transmittance before and after the elapse of time was less than 1.0%.)"},
      {"measurement": "Durability of polarizer: amount of change of orthogonal transmittance (%) 80° C., Dry 500 hours", "setting": "[1]", "value": "A+ (The amount of change of the orthogonal transmittance before and after the elapse of time was less than 0.1%.)"},
      {"measurement": "Durability of polarizer: amount of change of orthogonal transmittance (%) 80° C., Dry, 1,000 hours", "setting": "[1]", "value": "A+ (The amount of change of the orthogonal transmittance before and after the elapse of time was less than 0.5%.)"},
      {"measurement": "Light-fast adhesiveness", "setting": "[2]", "value": "A (The number of cells peeled off among 100 cells was equal to or less than 10.)"}
    ]},
    {"smiles": "COC(=O)Oc1[nH]c(=O)n(Cc2ccc(B(O)O)cc2)c(=O)c1Cc1ccccc1", "note": "[Example compound AAK]", "values": [
      {"measurement": "Durability of polarizer: amount of change of orthogonal transmittance (%) 60° C., 95%, 500 hours", "setting": "[1]", "value": "A+ (The amount of change of the orthogonal transmittance before and after the elapse of time was less than 0.4%.)"},
      {"measurement": "Durability of polarizer: amount of change of orthogonal transmittance (%) 60° C., 95%, 1,000 hours", "setting": "[1]", "value": "A+ (The amount of change of the orthogonal transmittance before and after the elapse of time was less than 1.0%.)"},
      {"measurement": "Durability of polarizer: amount of change of orthogonal transmittance (%) 80° C., Dry 500 hours", "setting": "[1]", "value": "A+ (The amount of change of the orthogonal transmittance before and after the elapse of time was less than 0.1%.)"},
      {"measurement": "Durability of polarizer: amount of change of orthogonal transmittance (%) 80° C., Dry, 1,000 hours", "setting": "[1]", "value": "A+ (The amount of change of the orthogonal transmittance before and after the elapse of time was less than 0.5%.)"},
      {"measurement": "Light-fast adhesiveness", "setting": "[2]", "value": "A (The number of cells peeled off among 100 cells was equal to or less than 10.)"}
    ]},
    {"smiles": "COC(=O)Oc1c(Cc2ccc(B3OC(C)(C)C(C)(C)O3)cc2)c(=O)n(-c2ccccc2)c(=O)n1Cc1ccccc1", "note": "[Example compound AAM]", "values": [
      {"measurement": "Durability of polarizer: amount of change of orthogonal transmittance (%) 60° C., 95%, 500 hours", "setting": "[1]", "value": "A+ (The amount of change of the orthogonal transmittance before and after the elapse of time was less than 0.4%.)"},
      {"measurement": "Durability of polarizer: amount of change of orthogonal transmittance (%) 60° C., 95%, 1,000 hours", "setting": "[1]", "value": "A+ (The amount of change of the orthogonal transmittance before and after the elapse of time was less than 1.0%.)"},
      {"measurement": "Durability of polarizer: amount of change of orthogonal transmittance (%) 80° C., Dry 500 hours", "setting": "[1]", "value": "A+ (The amount of change of the orthogonal transmittance before and after the elapse of time was less than 0.1%.)"},
      {"measurement": "Durability of polarizer: amount of change of orthogonal transmittance (%) 80° C., Dry, 1,000 hours", "setting": "[1]", "value": "A+ (The amount of change of the orthogonal transmittance before and after the elapse of time was less than 0.5%.)"},
      {"measurement": "Light-fast adhesiveness", "setting": "[2]", "value": "A (The number of cells peeled off among 100 cells was equal to or less than 10.)"}
    ]},
    {"smiles": "CCO[Si](CCCNC(=O)OCCn1c(=O)[nH]c(OC(=O)OC)c(Cc2ccccc2)c1=O)(OCC)OCC", "note": "[Example compound AAO]", "values": [
      {"measurement": "Durability of polarizer: amount of change of orthogonal transmittance (%) 60° C., 95%, 500 hours", "setting": "[1]", "value": "A+ (The amount of change of the orthogonal transmittance before and after the elapse of time was less than 0.4%.)"},
      {"measurement": "Durability of polarizer: amount of change of orthogonal transmittance (%) 60° C., 95%, 1,000 hours", "setting": "[1]", "value": "A+ (The amount of change of the orthogonal transmittance before and after the elapse of time was less than 1.0%.)"},
      {"measurement": "Durability of polarizer: amount of change of orthogonal transmittance (%) 80° C., Dry 500 hours", "setting": "[1]", "value": "A+ (The amount of change of the orthogonal transmittance before and after the elapse of time was less than 0.1%.)"},
      {"measurement": "Durability of polarizer: amount of change of orthogonal transmittance (%) 80° C., Dry, 1,000 hours", "setting": "[1]", "value": "A+ (The amount of change of the orthogonal transmittance before and after the elapse of time was less than 0.5%.)"},
      {"measurement": "Light-fast adhesiveness", "setting": "[2]", "value": "A (The number of cells peeled off among 100 cells was equal to or less than 10.)"}
    ]},
    {"smiles": "COC(=O)Oc1c(Cc2ccc(F)c(F)c2)c(=O)n(-c2ccccc2)c(=O)n1Cc1ccccc1", "note": "[Example compound AAQ]", "values": [
      {"measurement": "Durability of polarizer: amount of change of orthogonal transmittance (%) 60° C., 95%, 500 hours", "setting": "[1]", "value": "A (The amount of change of the orthogonal transmittance before and after the elapse of time was equal to or greater than 0.4% and less than 0.6%.)"},
      {"measurement": "Durability of polarizer: amount of change of orthogonal transmittance (%) 60° C., 95%, 1,000 hours", "setting": "[1]", "value": "A (The amount of change of the orthogonal transmittance before and after the elapse of time was equal to or greater than 1.0% and less than 1.4%.)"},
      {"measurement": "Durability of polarizer: amount of change of orthogonal transmittance (%) 80° C., Dry 500 hours", "setting": "[1]", "value": "A (The amount of change of the orthogonal transmittance before and after the elapse of time was equal to or greater than 0.1% and less than 0.3%.)"},
      {"measurement": "Durability of polarizer: amount of change of orthogonal transmittance (%) 80° C., Dry, 1,000 hours", "setting": "[1]", "value": "A (The amount of change of the orthogonal transmittance before and after the elapse of time was equal to or greater than 0.5% and less than 0.8%.)"},
      {"measurement": "Light-fast adhesiveness", "setting": "[2]", "value": "A (The number of cells peeled off among 100 cells was equal to or less than 10.)"}
    ]},
    {"smiles": "COC(=O)Oc1[nH]c(=O)[nH]c(=O)c1C=O", "note": "[Example compound AAT]", "values": [
      {"measurement": "Durability of polarizer: amount of change of orthogonal transmittance (%) 60° C., 95%, 500 hours", "setting": "[1]", "value": "A+ (The amount of change of the orthogonal transmittance before and after the elapse of time was less than 0.4%.)"},
      {"measurement": "Durability of polarizer: amount of change of orthogonal transmittance (%) 60° C., 95%, 1,000 hours", "setting": "[1]", "value": "A+ (The amount of change of the orthogonal transmittance before and after the elapse of time was less than 1.0%.)"},
      {"measurement": "Durability of polarizer: amount of change of orthogonal transmittance (%) 80° C., Dry 500 hours", "setting": "[1]", "value": "A+ (The amount of change of the orthogonal transmittance before and after the elapse of time was less than 0.1%.)"},
      {"measurement": "Durability of polarizer: amount of change of orthogonal transmittance (%) 80° C., Dry, 1,000 hours", "setting": "[1]", "value": "A+ (The amount of change of the orthogonal transmittance before and after the elapse of time was less than 0.5%.)"},
      {"measurement": "Light-fast adhesiveness", "setting": "[2]", "value": "A (The number of cells peeled off among 100 cells was equal to or less than 10.)"}
    ]},
    {"smiles": "COC(=O)Oc1[nH]c(=O)n(Cc2ccc(C=O)cc2)c(=O)c1C=O", "note": "[Example compound AAU]", "values": [
      {"measurement": "Durability of polarizer: amount of change of orthogonal transmittance (%) 60° C., 95%, 500 hours", "setting": "[1]", "value": "A+ (The amount of change of the orthogonal transmittance before and after the elapse of time was less than 0.4%.)"},
      {"measurement": "Durability of polarizer: amount of change of orthogonal transmittance (%) 60° C., 95%, 1,000 hours", "setting": "[1]", "value": "A+ (The amount of change of the orthogonal transmittance before and after the elapse of time was less than 1.0%.)"},
      {"measurement": "Durability of polarizer: amount of change of orthogonal transmittance (%) 80° C., Dry 500 hours", "setting": "[1]", "value": "A+ (The amount of change of the orthogonal transmittance before and after the elapse of time was less than 0.1%.)"},
      {"measurement": "Durability of polarizer: amount of change of orthogonal transmittance (%) 80° C., Dry, 1,000 hours", "setting": "[1]", "value": "A+ (The amount of change of the orthogonal transmittance before and after the elapse of time was less than 0.5%.)"},
      {"measurement": "Light-fast adhesiveness", "setting": "[2]", "value": "A (The number of cells peeled off among 100 cells was equal to or less than 10.)"}
    ]}
  ]
}
